These results are taken from article doi:10.1101/2021.11.06.467519.

Amino acid sequences for entries named in this document (tags omitted).
UniProt Q9HC98: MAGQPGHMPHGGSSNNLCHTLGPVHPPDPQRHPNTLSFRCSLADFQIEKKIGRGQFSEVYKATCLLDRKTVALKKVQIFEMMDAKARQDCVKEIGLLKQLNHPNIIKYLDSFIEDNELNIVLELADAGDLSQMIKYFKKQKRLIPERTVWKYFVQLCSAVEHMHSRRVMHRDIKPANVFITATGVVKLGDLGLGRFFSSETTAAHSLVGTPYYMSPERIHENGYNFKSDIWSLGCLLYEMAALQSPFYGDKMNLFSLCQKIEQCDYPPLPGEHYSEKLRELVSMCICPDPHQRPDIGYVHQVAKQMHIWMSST

In the assay the target is T1, YME1L1 (human (endogenous in HTR8/SVNeo)) (UniProt Q96TA2).
T1 sequence: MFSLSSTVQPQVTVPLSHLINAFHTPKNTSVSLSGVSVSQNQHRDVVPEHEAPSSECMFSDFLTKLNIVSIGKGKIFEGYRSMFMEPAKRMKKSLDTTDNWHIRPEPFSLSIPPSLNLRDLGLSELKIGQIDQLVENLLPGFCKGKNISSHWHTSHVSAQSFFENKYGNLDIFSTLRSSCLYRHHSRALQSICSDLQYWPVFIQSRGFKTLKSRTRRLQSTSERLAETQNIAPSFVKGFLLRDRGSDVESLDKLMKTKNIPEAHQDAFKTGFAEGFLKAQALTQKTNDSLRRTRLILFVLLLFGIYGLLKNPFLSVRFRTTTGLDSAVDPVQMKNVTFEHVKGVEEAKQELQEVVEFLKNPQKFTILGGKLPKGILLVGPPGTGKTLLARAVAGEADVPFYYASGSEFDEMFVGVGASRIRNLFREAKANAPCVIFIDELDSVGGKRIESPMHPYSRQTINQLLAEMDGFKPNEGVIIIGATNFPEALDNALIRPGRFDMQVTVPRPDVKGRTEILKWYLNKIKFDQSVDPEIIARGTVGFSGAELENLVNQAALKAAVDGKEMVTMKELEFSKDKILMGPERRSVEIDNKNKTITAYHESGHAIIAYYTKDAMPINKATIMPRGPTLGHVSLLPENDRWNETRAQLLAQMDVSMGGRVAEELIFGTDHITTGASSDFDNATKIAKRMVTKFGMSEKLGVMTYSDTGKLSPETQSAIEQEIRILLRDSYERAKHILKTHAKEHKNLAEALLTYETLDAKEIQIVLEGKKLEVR
As to the kind of experiment: co-IP.

These are yes or no findings as the source states them, for the method shown. In cells and extracts the contact can be indirect.

In the case of “NEK6 kinase (from UniProt Q9HC98 1-313) (enzyme)”, the binding result is on record as “no binding”.
